The target of assay [1] is T1, recombinant human NRP2 Fc chimera (R&D), purified (human) (UniProt O60462).
T1 sequence (looked up): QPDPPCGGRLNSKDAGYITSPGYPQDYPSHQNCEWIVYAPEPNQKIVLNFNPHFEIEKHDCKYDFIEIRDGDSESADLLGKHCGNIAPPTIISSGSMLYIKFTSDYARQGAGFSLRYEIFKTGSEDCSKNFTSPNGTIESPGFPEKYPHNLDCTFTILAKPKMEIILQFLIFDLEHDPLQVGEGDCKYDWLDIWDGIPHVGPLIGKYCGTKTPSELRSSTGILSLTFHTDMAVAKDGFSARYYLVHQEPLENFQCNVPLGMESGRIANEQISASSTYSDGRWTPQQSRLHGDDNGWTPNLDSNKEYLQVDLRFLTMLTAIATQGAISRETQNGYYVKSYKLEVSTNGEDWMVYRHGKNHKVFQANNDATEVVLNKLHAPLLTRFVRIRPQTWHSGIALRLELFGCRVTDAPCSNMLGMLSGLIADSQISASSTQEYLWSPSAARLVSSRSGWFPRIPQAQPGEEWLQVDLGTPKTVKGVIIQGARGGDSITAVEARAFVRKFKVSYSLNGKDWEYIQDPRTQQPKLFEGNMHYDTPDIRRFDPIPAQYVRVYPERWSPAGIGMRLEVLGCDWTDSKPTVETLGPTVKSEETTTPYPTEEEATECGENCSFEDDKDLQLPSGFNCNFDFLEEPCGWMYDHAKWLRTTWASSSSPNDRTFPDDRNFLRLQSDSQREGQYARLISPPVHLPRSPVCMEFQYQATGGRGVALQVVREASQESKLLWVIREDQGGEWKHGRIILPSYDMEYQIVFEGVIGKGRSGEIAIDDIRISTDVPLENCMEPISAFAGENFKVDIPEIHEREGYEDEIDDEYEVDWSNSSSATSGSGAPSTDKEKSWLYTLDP
Kind of assay: phage binding to NRP2-coated microtiter wells (FIG. 3A).

Assay [2] concerns the target T1, recombinant human NRP2 Fc chimera (R&D), purified (human). Kind of assay: summary of the phage binding assays.
The target in assay [3] is T2, recombinant human NRP1 (R&D), purified (human, UniProt O14786-2 22-644, limits assumed).
T2 construct: Bought protein; also called purified NRP1; immobilized NRP1
T2 sequence (looked up): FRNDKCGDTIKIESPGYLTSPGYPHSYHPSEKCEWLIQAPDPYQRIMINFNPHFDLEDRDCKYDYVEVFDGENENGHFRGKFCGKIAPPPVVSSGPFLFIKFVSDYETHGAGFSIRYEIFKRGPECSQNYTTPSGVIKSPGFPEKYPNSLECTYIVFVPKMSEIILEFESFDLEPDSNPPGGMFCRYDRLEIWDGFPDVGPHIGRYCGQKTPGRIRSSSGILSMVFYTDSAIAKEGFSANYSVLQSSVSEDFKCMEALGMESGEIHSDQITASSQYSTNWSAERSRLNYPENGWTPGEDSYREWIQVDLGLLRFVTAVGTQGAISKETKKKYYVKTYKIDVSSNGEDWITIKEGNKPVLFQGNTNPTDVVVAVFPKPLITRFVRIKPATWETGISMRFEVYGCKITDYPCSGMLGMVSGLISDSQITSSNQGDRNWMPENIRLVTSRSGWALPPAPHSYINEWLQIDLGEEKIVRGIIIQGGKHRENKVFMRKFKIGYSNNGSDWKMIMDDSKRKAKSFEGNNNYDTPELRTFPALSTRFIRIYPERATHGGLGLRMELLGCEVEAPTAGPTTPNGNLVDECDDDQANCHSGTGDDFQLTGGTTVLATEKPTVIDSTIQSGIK
As to the kind of experiment: summary of the phage binding assays.

For assay [4], the target named is T2, recombinant human NRP1 (R&D), purified. Kind of assay: phage binding to NRP1-coated microtiter wells (FIG. 2).

These are yes or no findings as the source states them, for the method shown. Some binding calls cover weakened binding; strength is not graded here. For some assays here: Sequences can lack the tags named with a protein.

Regarding CGNKRTR (also called CGNKRTR phage; phage tLyP-1) [tLyP-1 phage (T7 phage displaying CGNKRTR, truncated LyP-1)], the binding result in assay [1], in assay [2], in assay [3] and in assay [4] was “binds” in each case.

For the molecule RPARPAR [RPARPAR phage (T7 phage displaying the prototypic CendR peptide RPARPAR)], the binding entry in assay [1] is given as “binds”.

Source of the values: patent US20150259380A1 (SANFORD BURNHAM MEDICAL RESEARCH INSTITUTE, published 2015).
